Test results reported in article PMC11523043.

T1: Flag-tagged Las1L (UniProt Q9Y4W2)
T1 sequence: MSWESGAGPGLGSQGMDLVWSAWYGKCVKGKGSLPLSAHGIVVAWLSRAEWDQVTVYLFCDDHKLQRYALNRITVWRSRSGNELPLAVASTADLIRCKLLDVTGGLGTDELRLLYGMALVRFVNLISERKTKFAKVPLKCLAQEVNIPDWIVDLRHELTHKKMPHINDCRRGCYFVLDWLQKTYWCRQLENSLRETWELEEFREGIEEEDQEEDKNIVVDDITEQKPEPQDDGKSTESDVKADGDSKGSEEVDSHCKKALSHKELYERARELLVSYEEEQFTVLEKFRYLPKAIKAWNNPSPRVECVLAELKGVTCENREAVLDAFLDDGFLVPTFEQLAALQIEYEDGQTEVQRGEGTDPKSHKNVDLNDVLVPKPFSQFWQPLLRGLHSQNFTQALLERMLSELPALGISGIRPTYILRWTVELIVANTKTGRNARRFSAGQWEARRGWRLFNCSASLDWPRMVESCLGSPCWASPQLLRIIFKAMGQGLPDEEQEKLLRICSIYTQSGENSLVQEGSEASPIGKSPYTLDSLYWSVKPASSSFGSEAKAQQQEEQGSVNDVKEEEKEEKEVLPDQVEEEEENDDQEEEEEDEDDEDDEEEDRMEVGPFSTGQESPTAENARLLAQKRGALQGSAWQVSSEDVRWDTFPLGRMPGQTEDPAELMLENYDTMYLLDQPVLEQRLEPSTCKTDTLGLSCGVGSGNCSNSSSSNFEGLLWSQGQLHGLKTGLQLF

B1: endogenous Las1L (enzyme, UniProt Q9Y4W2 1-734)
chain: T1 sequence
B2: endogenous Nol9 (enzyme, UniProt Q5SY16 1-702)
chain: MADSGLLLKRGSCRSTWLRVRKARPQLILSRRPRRRLGSLRWCGRRRLRWRLLQAQASGVDWREGARQVSRAAAARRPNTATPSPIPSPTPASEPESEPELESASSCHRPLLIPPVRPVGPGRALLLLPVEQGFTFSGICRVTCLYGQVQVFGFTISQGQPAQDIFSVYTHSCLSIHALHYSQPEKSKKELKREARNLLKSHLNLDDRRWSMQNFSPQCSIVLLEHLKTATVNFITSYPGSSYIFVQESPTPQIKPEYLALRSVGIRREKKRKGLQLTESTLSALEELVNVSCEEVDGCPVILVCGSQDVGKSTFNRYLINHLLNSLPCVDYLECDLGQTEFTPPGCISLLNITEPVLGPPFTHLRTPQKMVYYGKPSCKNNYENYIDIVKYVFSAYKRESPLIVNTMGWVSDQGLLLLIDLIRLLSPSHVVQFRSDHSKYMPDLTPQYVDDMDGLYTKSKTKMRNRRFRLAAFADALEFADEEKESPVEFTGHKLIGVYTDFAFRITPRNRESHNKILRDLSILSYLSQLQPPMPKPLSPLHSLTPYQVPFNAVALRITHSDVAPTHILYAVNASWVGLCKIQDDVRGYTNGPILLAQTPICDCLGFGICRGIDMEKRLYHILTPVPPEELRTVNCLLVGAIAIPHCVLKCQRGIEGTVPYVTTDYNFKLPGASEKIGAREPEEAHKEKPYRRPKFCRKMK

Tests used:
Assay in all cases: co-IP; lysates of cells (HEK293, HeLa or H1299) transfected with the Flag-tagged bait, anti-Flag (M2) agarose, 4°C for 4 hours, 50 mmol/L Tris-HCl pH 8.0, 0.5% Nonidet P-40, 150 mmol/L NaCl; endogenous partner detected by IB; for Flag-USP36 also in the presence of 100 μg/mL RNase A and 100 U/mL RNase T1
Flag-tagged Las1L = target: T1, Flag-tagged Las1L
[1] = target: Flag-USP36 N-terminal ubiquitin-specific protease domain
[2] = target: Flag-USP36 central region

| Molecule | binding (Flag-tagged Las1L) | binding [1] | binding [2] |
| --- | --- | --- | --- |
| RPS27a (human (endogenous in HEK293)) | no binding |  |  |
| B1 |  | no binding | no binding |
| B2 |  | no binding | no binding |

No constants are given. Whether binding was seen depends on the method and setting. In cells and extracts the contact can be indirect. For some assays here: Where a sequence is shown, tags or fusion partners need not be part of it.
